Measured values reported in publication PMC4685450, “Crystal Structure of Human SSRP1 Middle Domain Reveals a Role in DNA Binding”.
The exact form of at least one protein or probe is not confirmed. For part of these data: Weaker means in comparison with the reference protein, sequence or condition of that experiment. At least one verdict was read from the data and is not stated in words by the source.

Amino acid sequences for entries named in this document (tags omitted). Residues count along the entry.
UniProt Q08945, 196-430 R211A/R213A: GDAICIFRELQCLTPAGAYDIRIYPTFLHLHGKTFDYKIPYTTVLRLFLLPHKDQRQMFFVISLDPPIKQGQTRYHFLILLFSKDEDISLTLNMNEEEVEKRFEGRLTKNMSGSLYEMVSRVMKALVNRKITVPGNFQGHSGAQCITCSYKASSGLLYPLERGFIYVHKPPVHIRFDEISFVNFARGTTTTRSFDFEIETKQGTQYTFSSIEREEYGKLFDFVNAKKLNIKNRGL
UniProt Q08945, 196-430 R241A/K319A/K325A/R357A: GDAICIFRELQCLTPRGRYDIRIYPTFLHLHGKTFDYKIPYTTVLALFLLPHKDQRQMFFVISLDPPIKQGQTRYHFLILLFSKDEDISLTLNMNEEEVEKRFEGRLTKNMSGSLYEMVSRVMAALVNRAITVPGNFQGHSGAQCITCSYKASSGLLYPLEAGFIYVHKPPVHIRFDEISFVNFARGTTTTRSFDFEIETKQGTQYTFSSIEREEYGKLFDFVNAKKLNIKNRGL
UniProt Q08945, 196-430 R211A/R213A/K346A/K364A: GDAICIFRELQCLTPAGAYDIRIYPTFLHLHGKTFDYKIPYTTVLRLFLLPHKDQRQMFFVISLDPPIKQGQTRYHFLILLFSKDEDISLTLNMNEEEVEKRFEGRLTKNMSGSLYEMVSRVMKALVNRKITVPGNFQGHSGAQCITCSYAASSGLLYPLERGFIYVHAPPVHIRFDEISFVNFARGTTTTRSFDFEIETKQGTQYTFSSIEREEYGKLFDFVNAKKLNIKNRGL
UniProt Q08945, 196-430 R241A/R357A: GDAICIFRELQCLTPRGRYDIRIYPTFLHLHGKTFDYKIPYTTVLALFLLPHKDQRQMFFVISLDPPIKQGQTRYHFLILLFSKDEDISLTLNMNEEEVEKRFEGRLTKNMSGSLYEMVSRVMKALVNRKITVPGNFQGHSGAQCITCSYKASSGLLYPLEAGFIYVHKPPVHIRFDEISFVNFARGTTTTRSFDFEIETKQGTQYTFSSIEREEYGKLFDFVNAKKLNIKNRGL
UniProt Q08945, 196-430 K346A/K364A: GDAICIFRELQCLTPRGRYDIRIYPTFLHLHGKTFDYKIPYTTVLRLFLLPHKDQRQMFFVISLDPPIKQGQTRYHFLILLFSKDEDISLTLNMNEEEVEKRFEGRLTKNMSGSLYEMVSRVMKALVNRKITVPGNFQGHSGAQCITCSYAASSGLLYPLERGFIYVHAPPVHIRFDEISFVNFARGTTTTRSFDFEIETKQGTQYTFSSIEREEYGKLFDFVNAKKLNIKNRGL
UniProt Q08945, 196-430 K319A/K325A: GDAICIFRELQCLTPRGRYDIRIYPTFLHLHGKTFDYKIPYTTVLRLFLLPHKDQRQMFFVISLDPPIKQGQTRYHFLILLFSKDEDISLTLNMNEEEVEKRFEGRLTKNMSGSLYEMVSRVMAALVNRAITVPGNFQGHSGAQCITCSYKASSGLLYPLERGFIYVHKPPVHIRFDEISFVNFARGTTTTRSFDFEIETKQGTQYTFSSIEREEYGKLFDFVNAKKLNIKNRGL

Legend:
[1] = biological target: SSRP1-M R211A/R213A (Homo sapiens) (UniProt Q08945); experiment: EMSA (native PAGE); conditions: more free DNA than WT, in agarose EMSA free DNA similar to WT; EMSA buffer; proteins purified in 20 mM Tris-HCl, 200 mM NaCl, pH 7.0; recombinant protein; residues 196-430; protein details: N-terminal 6xHis
[2] = biological target: SSRP1-M R241A/R357A/K319A/K325A (Homo sapiens) (UniProt Q08945); experiment: EMSA (native PAGE); conditions: more gel shifting than WT; EMSA buffer; proteins purified in 20 mM Tris-HCl, 200 mM NaCl, pH 7.0; recombinant protein; residues 196-430; protein details: N-terminal 6xHis
[3] = biological target: SSRP1-M R211A/R213A/K364A/K346A (Homo sapiens) (UniProt Q08945); experiment: EMSA (native PAGE); conditions: EMSA buffer; proteins purified in 20 mM Tris-HCl, 200 mM NaCl, pH 7.0; recombinant protein; residues 196-430; protein details: N-terminal 6xHis
[4] = biological target: SSRP1-M R241A/R357A (Homo sapiens) (UniProt Q08945); experiment: EMSA (agarose and native PAGE); conditions: less oligomerized, much more shifted complex than WT; EMSA buffer; proteins purified in 20 mM Tris-HCl, 200 mM NaCl, pH 7.0; recombinant protein; residues 196-430; protein details: N-terminal 6xHis
[5] = biological target: SSRP1-M K364A/K346A (Homo sapiens) (UniProt Q08945); experiment: EMSA (agarose and native PAGE); conditions: more free DNA than WT; EMSA buffer; proteins purified in 20 mM Tris-HCl, 200 mM NaCl, pH 7.0; recombinant protein; residues 196-430; protein details: N-terminal 6xHis
[6] = biological target: SSRP1-M K319A/K325A (Homo sapiens) (UniProt Q08945); experiment: EMSA (agarose and native PAGE); conditions: less oligomerized, more shifted complex than WT; EMSA buffer; proteins purified in 20 mM Tris-HCl, 200 mM NaCl, pH 7.0; recombinant protein; residues 196-430; protein details: N-terminal 6xHis

Measured: binding result

TCCAGTGCCGGTGTCGCTTGGGTCCCGAGG (double strand) [30-bp linker dsDNA]
binds more weakly: [1] | [3] | [5]
binds: all other assays above
